Measurements reported in patent publication US9528156B2, “Method for determining the predisposition of a patient to changed biotransformation and to the development of undesired drug effects in a treatment of the patient with atrovastatin” (Robert Bosch GmbH, priority 2009, dated 2016).

Tests used:
[1] = tested on: cytochrome P450 CYP3A subfamily (CYP3A4 and CYP3A5); settings: recombinantly expressed CYP enzymes
[2] = tested on: UGT1A3; settings: human liver microsomes, only heterozygotic carriers

With `CC(C)c1c(C(=O)Nc2ccccc2)c(-c2ccccc2)c(-c2ccc(F)cc2)n1CC[C@@H](O)C[C@@H](O)CC(=O)O` [atorvastatin] the “P450 enzymes catalyzing ATV hydroxylation” value [1] was “the only relevant P450 enzymes which catalyze the ATV hydroxylation” and the “lactone formation in carriers of UGT1A3*3 and *6 haplotypes” value [2] was “no increased lactone formation”.
